Earlier results as cited in publication PMC5289073, “Stable expression and functional characterisation of the diamondback moth ryanodine receptor G4946E variant conferring resistance to diamide insecticides” (Scientific Reports, 2015).

Tested on: H. virescens RyR
Conditions: cited from earlier work

SMILES: CC(C)[C@@]1(O)[C@@H](OC(=O)c2ccc[nH]2)[C@@]2(O)[C@@]3(C)C[C@]4(O)O[C@@]5([C@H](O)[C@@H](C)CC[C@]35O)[C@@]2(O)[C@@]14C [ryanodine]
- Bmax (H. virescens native membrane preparations, different study): 1 to 1.5 pmol/mg
- Bmax (native preparation of H. virescens RyR): 2.41 ± 0.17 pmol/mg

Read-outs that look alike come from different tables or passages of the source.
